From patent publication US12570661B2, “Isoform-specific aldehyde dehydrogenase inhibitors” (The Board of Trustees of the Leland Stanford Junior …, priority 2020, dated 2026)
The match of structure and compound is tentative.

By UniProt entry, the sequences of proteins in these tests, tags left out. Residues count along the entry.
UniProt P30837, 18-517 limits assumed: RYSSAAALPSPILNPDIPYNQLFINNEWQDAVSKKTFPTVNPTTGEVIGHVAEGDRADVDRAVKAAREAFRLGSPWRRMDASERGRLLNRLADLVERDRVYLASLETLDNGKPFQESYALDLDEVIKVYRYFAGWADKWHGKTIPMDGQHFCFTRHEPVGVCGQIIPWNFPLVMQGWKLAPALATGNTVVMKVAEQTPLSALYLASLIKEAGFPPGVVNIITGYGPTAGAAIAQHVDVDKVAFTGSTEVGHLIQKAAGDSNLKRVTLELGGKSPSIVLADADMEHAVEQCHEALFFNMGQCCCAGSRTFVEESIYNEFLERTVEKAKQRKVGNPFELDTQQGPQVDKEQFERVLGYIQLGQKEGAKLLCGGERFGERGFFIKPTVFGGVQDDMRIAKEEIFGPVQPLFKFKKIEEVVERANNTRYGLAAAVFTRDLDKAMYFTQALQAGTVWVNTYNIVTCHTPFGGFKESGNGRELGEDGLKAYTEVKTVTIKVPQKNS

Columns and labels:
HEK293T cells = test system: HEK293T cells
Procedure: HEK-293T cells were seeded into a 96-well plate at a density of 5×10^3 cells/well and treated with varying concentrations of selected compounds or an equivalent amount of DMSO vehicle. The cells were cultured for 4-5 days without a media change, and after the DMSO-treated cells approached 100% confluence, the cell viabilities were measured using a CellTiter-Glo 3D Cell Viability Assay kit (Promega) and a Veritas microplate luminometer (Turner BioSystems) as described above.

SW480 cells (adherent) = experiment: Cell viability assay, adherent SW480 cultures; conditions: read-out: Adherent SW480 GI50; adherent culture, 7 days
Procedure: SW480 or HCT116 cells were seeded into regular or Matrigel-coated 96-well plates at a density of 1000 cells/well. The cells were cultured in the corresponding adherent or spheroid culture medium (200 μL/well) containing the designated compounds or an equivalent amount of DMSO vehicle. Each culture was maintained for 7 days, and then cell viabilities were measured using a CellTiter-Glo 3D Cell Viability Assay kit (Promega). Briefly, 100 μL of the culture medium was removed from each well and replaced with 100 μL 3D Cell Assay reagent. The cells in each well were next homogenized by vigorous pipetting, and the plate was incubated for 10 min at room temperature to stabilize the chemiluminescent signal. A 150-μL aliquot from each well was then transferred into a white opaque 96-well assay plate (flat-bottom and non-treated; Corning Costar) and luminescence intensities were measured with a Veritas microplate luminometer (Turner BioSystems).

SW480 cells (spheroid) = experiment: Matrigel spheroid growth / viability assay, SW480; format: cell-based; conditions: read-out: Spheroid SW480 GI50; Matrigel spheroid culture, 7 days
Procedure: To prepare Matrigel-coated culture plates, 96-well and 24-well plates were placed on ice and coated with 25 μL or 300 μL, respectively, of Matrigel matrix (Corning, LDEV-free) that had been thawed overnight at 4° C. The plates were then placed in a 37° C. incubator for 30 min to allow the Matrigel to solidify. […]
To quantify spheroid growth at the 7-day endpoint, unstained spheroids were imaged with phase-contrast illumination using a Keyence BZ-X710 microscope. […] Spheroid sizes were quantified with ImageJ (Fiji) software using masks created with the default “Threshold” function and foreground/background adjustments to optimize masking fidelity. […]
SW480 or HCT116 cells were seeded into regular or Matrigel-coated 96-well plates at a density of 1000 cells/well. […] Each culture was maintained for 7 days, and then cell viabilities were measured using a CellTiter-Glo 3D Cell Viability Assay kit (Promega). […] A 150-μL aliquot from each well was then transferred into a white opaque 96-well assay plate (flat-bottom and non-treated; Corning Costar) and luminescence intensities were measured with a Veritas microplate luminometer (Turner BioSystems).

ALDH1B1 = ALDH1B1 (Homo sapiens, UniProt P30837); experiment: ALDH1B1 enzyme kinetics assay (NADH fluorescence, acetaldehyde substrate); conditions: read-out: ALDH1B1(in vitro) IC50; 1 μg/mL enzyme, 1 mM acetaldehyde, 1 mM NAD+
Procedure: Cloning, expression, and purification of human recombinant ALDH1A1, ALDH1A3, ALDH2, ALDH3A1, ALDH3A2, ALDH4A1, ALDH5A1 and ALDH7A1 isozymes were conducted as described previously (Chen, C. H. et al. (2015) Proc. Natl. Acad. Sci. U.S.A. 112, 3074-3079). Human ALDH1A2 (Origene, SC109995) and ALDH1B1 (T. Hurley, Indiana University) plasmids were cloned into the pET-15b expression vector (Novagen, 69661-3) containing an N-terminal hexahistidine tag. The mitochondria-targeting sequence of ALDH1B1 was also removed. […] The protein concentration for each fraction was measured (500 μL elution volume was collected as one fraction and was immediately mixed with 500 μL glycerol. The protein concentration for each fraction was measured (600 nm Protein Assay Reagent; Thermo Fisher Scientific), and protein-containing fractions were diluted with an equal volume of glycerol and stored at −80° C. Samples from each step were also collected for SDS-PAGE gel analysis. For ALDH1B1 protein co-expression with chaperones, pET-15b-ALDH1B1 and GroEL/GroES (Addgene, plasmid pBB541) plasmids were co-transformed into competent BL21 E. coli cells, which were subsequently grown in 1 L of Luria-Bertani medium containing 100 μg/mL ampicillin and 50 μg/mL spectinomycin at 37° C. […]

`CCc1cc(Cl)ccc1C1=CN(c2ccc(-c3ccccc3OC)cc2)C2=NCCCN12` gave a GI50 (HEK293T cells) of 1700 nM, a GI50 (SW480 cells (adherent)) of 1900 nM and a GI50 (SW480 cells (spheroid)) of 230 nM. For the same molecule, the IC50 (ALDH1B1) was 59 nM.
